These are yes or no findings as the source states them, for the method shown. Some entries that bind do so weakly or less than the wild type.

Chains of the proteins cited; added tags and fusions are not shown. Residues count along the entry.
UniProt P40224, residues 22-89: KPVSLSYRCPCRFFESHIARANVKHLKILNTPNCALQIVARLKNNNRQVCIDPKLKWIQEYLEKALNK
UniProt P63158: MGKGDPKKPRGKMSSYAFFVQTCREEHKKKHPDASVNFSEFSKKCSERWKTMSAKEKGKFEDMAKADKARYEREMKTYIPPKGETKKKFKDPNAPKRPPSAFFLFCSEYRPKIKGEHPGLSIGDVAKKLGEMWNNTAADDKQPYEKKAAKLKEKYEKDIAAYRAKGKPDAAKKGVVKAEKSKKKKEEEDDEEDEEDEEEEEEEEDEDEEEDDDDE

This assay has as its target CXCL12, endogenous, in mouse plasma (mouse) (UniProt P40224). Kind of assay: hybrid sandwich ELISA on plasma (capture anti-CXCL12, detection anti-HMGB1). (In general: ELISA stands for enzyme-linked immunosorbent assay.)

As for “HMGB1 (High Mobility Group Box 1), endogenous, in mouse plasma (from UniProt P63158 1-215)”, the binding result was “binds”.

These data come from patent US20220023387A1.
